Assay [1] addresses T1, FBXO11, large isoform (Fbxo11-001, 930 aa, 103 kDa) (mouse (endogenous in E15.5 embryonic lung)) (UniProt Q7TPD1).
T1 sequence: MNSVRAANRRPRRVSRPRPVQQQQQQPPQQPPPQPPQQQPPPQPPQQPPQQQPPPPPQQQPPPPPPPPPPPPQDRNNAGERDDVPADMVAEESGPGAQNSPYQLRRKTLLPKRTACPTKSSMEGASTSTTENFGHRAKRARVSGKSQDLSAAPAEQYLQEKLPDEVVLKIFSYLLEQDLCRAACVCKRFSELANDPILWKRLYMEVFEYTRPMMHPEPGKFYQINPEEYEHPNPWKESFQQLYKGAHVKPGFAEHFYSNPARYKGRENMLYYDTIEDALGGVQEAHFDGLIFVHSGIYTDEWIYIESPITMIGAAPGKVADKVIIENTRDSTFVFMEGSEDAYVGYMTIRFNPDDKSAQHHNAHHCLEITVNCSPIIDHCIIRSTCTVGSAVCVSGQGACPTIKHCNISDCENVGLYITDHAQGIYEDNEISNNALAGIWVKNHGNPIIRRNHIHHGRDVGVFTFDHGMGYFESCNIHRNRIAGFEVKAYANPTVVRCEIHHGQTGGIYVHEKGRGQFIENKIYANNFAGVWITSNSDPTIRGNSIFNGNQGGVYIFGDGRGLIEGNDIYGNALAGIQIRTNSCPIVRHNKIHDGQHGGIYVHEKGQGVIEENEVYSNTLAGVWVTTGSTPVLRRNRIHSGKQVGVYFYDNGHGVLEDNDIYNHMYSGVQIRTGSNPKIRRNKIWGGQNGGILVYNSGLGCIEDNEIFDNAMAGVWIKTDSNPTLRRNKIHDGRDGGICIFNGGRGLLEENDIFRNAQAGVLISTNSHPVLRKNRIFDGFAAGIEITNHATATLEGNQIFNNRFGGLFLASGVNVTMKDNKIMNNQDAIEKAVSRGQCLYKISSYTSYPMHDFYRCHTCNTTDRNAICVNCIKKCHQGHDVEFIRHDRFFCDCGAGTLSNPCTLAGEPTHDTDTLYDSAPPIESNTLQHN
The experiment in a line: co-IP; total protein from E15.5 wild-type mouse lungs precipitated with anti-FBXO11 177A (recognises only the large isoform); 12.5 µg antibody for 2.5 mg protein extract, Dynabeads protein G; Western blot.

Chains of the proteins cited; added tags and fusions are not shown.
UniProt Q9WTX6: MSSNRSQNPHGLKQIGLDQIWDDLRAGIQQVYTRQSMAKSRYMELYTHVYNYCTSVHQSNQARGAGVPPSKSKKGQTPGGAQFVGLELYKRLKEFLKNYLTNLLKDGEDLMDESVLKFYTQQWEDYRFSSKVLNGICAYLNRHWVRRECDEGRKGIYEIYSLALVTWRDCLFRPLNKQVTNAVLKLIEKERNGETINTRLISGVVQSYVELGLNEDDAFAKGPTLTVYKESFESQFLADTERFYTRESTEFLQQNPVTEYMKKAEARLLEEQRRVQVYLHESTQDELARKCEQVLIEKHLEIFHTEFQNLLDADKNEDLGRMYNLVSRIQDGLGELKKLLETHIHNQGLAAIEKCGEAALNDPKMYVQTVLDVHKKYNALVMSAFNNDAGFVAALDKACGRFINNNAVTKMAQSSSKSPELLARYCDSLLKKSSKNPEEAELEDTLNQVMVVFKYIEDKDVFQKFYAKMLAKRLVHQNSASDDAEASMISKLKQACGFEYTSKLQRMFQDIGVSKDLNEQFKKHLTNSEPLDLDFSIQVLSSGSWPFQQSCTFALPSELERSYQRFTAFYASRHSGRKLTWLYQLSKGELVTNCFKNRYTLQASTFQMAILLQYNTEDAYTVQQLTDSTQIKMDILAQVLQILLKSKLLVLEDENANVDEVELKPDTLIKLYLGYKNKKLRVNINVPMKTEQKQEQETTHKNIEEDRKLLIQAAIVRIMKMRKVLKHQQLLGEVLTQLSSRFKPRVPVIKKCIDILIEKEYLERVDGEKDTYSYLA

Assay [2] concerns the target T1, FBXO11, large isoform (Fbxo11-001, 930 aa, 103 kDa) (mouse (endogenous in E15.5 embryonic lung)). The experiment in a line: co-IP; total protein from E15.5 wild-type mouse lungs precipitated with anti-FBXO11 178A (detects both the large and small isoforms); 12.5 µg antibody for 2.5 mg protein extract, Dynabeads protein G; Western blot.

Results are given in words; binding and its absence hold for the method and conditions named. Binding seen in cells or lysates may run through a third protein. Some binding calls cover weakened binding; strength is not graded here.

For CUL1 (from UniProt Q9WTX6 1-776), the binding entry in assay [1] and in assay [2] was “binds” each time.

The values are drawn from PMC4728322.
